Values quoted from earlier work, collected in US20210038566A1, “USE OF MODULATORS OF NEET PROTEINS FOR THE TREATMENT OF INFECTION” (ENYO PHARMA, priority 2018, published 2021).
Some results were stated once for a whole list of compounds, not compound by compound.

Target: T1, NEET protein (Homo sapiens, UniProt Q9NZ45)
T1 sequence (Q9NZ45 32-108 limits assumed): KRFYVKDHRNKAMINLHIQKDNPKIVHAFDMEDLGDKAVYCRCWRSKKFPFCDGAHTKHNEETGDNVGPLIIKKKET
Settings: compounds as described in Geldenhuys et al. 2016; cited from earlier work
For `CN(CCOc1ccc(CC2SC(=O)NC2=O)cc1)c1ccccn1` (racemic) [Rosiglitazone, (±)-5-[p-[2-(methyl-2-pyridylamino)ethoxy]benzyl]-2,4-thiazolidinedione], the IC50 is listed as < 10 µM and the Ki is listed as < 0.4 µM.
In the case of `CCc1ccc(CCOc2ccc(CC3SC(=O)NC3=O)cc2)nc1` (centres unmarked) [Pioglitazone], the IC50 is given as < 10 µM and the Ki is given as < 0.4 µM.
For `COc1cc(/C=C/C(=O)CC(=O)/C=C/c2ccc(O)c(OC)c2)ccc1O` [Curcumin], the IC50 is given as < 10 µM and the Ki is given as < 0.4 µM.
For `O=c1c(O)c(-c2ccc(O)cc2)oc2cc(O)cc(O)c12` [Kaempferol], the IC50 is given as < 10 µM and the Ki is given as < 0.4 µM.
